# The list shows a part of the results. Most entries show no effect beyond the scatter of the controls.
# By UniProt entry, the sequences of proteins in these tests, tags left out. Where a name states a change or a piece, a line headed by the entry shows the natural chain unless it says otherwise.
# UniProt O60306: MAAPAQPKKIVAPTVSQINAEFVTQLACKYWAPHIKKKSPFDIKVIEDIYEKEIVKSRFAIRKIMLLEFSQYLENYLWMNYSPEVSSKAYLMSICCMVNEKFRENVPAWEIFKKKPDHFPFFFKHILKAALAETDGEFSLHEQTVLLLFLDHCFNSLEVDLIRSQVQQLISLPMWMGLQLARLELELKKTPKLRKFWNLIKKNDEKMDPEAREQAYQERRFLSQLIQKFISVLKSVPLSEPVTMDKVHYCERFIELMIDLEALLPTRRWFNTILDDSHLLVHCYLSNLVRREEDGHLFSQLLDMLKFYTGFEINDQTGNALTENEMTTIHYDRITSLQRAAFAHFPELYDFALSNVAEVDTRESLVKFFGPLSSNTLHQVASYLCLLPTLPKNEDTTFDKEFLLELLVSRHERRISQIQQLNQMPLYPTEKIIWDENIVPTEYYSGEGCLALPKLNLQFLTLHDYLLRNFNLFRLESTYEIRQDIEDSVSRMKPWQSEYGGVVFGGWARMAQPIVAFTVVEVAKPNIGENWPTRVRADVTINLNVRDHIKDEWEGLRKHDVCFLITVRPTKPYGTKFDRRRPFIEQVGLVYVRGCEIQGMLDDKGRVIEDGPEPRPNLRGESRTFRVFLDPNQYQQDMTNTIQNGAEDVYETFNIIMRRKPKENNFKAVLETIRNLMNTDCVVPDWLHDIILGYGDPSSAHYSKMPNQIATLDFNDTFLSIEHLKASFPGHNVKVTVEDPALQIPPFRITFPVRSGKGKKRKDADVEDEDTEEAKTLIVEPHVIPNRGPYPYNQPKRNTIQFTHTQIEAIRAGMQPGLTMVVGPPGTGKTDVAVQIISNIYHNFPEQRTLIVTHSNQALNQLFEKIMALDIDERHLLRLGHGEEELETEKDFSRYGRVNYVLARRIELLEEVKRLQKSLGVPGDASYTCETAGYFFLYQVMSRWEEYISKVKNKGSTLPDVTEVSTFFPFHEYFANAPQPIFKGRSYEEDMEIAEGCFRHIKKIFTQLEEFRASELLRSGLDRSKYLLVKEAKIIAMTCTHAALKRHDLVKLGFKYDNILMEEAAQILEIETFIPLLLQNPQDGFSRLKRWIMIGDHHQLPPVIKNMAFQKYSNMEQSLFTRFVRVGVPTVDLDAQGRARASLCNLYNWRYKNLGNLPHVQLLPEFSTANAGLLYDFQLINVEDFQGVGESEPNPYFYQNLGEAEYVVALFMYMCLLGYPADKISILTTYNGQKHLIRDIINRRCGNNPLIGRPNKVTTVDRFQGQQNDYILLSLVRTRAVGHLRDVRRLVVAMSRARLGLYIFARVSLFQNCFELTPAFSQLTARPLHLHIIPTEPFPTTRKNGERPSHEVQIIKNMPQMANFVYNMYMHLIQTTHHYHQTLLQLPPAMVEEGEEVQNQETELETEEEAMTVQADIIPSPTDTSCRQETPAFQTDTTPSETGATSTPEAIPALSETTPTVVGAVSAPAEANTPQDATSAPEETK
# UniProt O60739, whole entry: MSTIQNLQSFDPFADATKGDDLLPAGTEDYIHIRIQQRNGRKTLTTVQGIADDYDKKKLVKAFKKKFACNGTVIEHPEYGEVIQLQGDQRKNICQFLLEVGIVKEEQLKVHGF
# UniProt O60347: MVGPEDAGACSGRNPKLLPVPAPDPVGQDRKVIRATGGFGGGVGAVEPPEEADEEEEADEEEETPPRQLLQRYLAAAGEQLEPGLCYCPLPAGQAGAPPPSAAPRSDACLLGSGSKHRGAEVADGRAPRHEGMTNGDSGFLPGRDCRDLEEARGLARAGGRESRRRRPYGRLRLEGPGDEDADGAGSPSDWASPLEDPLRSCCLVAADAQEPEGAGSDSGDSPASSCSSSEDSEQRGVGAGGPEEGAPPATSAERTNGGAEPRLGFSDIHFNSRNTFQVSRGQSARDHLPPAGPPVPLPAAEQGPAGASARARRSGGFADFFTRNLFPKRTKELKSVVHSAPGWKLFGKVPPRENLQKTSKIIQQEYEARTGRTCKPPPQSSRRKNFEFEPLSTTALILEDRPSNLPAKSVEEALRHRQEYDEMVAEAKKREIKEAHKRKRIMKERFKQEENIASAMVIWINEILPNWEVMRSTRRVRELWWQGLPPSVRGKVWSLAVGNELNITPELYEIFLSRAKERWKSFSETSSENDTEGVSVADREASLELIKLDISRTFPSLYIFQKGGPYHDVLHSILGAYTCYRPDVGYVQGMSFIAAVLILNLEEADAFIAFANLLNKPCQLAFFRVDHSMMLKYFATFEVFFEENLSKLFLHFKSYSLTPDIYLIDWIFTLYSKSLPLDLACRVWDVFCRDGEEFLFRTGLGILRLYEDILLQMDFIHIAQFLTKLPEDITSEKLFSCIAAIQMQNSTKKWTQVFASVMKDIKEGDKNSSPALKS
# UniProt O60308: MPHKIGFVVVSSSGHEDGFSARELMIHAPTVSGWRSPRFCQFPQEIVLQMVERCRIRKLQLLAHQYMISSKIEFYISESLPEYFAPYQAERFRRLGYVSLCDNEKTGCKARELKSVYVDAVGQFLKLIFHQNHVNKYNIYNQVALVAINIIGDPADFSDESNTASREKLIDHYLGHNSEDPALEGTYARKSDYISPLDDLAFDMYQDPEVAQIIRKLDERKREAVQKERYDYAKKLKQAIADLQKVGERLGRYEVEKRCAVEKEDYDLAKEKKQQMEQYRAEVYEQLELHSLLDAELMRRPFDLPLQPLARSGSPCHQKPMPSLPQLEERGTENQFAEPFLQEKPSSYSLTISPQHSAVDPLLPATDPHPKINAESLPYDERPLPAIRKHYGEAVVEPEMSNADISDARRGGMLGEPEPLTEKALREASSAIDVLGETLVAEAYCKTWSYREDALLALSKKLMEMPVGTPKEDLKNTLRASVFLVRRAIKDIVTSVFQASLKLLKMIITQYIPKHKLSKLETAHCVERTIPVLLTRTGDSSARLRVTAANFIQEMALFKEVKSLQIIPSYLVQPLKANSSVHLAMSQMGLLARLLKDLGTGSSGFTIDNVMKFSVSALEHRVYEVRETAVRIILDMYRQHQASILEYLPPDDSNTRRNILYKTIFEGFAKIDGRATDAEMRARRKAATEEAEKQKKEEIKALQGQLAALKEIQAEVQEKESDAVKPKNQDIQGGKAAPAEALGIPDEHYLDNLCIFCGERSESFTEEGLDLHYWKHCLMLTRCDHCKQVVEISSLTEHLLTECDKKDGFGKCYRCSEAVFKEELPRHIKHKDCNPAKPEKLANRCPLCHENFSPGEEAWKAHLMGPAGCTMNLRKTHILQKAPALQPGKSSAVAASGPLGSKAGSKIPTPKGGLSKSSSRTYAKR
# UniProt O60645: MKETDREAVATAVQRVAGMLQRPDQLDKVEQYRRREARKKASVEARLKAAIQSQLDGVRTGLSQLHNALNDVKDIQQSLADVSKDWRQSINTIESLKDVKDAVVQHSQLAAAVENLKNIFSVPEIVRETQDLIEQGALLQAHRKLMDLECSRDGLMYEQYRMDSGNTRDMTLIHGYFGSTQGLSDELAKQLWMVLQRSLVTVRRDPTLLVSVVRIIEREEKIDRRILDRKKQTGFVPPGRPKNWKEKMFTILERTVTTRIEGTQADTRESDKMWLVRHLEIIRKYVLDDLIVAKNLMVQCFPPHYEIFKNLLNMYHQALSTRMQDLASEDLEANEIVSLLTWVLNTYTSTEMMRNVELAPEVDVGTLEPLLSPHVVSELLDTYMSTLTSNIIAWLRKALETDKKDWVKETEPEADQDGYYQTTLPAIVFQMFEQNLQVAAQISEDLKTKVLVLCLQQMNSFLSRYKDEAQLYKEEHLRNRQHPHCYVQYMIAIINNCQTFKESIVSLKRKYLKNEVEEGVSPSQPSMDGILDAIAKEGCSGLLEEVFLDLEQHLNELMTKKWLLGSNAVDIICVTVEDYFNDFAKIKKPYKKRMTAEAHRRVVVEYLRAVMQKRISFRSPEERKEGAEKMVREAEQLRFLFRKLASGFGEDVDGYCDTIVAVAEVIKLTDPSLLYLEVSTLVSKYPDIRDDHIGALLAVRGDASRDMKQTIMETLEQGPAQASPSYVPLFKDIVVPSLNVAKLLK
# UniProt O43617, whole entry: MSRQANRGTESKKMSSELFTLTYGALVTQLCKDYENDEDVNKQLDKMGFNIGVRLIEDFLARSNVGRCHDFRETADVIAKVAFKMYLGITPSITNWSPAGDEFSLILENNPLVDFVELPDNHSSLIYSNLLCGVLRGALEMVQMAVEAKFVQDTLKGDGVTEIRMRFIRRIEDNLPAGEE
# UniProt O43324: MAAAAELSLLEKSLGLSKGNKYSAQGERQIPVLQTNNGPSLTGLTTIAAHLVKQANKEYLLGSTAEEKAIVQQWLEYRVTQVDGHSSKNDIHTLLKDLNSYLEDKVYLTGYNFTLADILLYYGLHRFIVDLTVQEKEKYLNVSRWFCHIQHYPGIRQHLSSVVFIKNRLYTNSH
# UniProt O43396: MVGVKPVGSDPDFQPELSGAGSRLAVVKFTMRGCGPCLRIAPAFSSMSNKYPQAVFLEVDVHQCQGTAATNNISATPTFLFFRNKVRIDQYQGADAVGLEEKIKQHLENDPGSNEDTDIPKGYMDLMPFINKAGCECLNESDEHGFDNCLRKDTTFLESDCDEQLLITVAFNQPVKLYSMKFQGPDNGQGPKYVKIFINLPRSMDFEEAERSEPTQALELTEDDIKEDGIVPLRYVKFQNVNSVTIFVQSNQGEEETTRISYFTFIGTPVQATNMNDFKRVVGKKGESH
# UniProt O43542: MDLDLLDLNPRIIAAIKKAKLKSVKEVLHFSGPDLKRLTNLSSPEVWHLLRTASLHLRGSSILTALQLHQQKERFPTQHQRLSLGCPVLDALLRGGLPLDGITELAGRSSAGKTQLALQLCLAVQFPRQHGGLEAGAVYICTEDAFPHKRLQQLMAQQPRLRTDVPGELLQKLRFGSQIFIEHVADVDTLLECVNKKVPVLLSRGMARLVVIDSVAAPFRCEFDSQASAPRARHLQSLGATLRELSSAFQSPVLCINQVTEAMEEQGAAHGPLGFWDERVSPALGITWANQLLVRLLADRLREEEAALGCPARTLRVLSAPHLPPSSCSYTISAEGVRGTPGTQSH
# UniProt O75208: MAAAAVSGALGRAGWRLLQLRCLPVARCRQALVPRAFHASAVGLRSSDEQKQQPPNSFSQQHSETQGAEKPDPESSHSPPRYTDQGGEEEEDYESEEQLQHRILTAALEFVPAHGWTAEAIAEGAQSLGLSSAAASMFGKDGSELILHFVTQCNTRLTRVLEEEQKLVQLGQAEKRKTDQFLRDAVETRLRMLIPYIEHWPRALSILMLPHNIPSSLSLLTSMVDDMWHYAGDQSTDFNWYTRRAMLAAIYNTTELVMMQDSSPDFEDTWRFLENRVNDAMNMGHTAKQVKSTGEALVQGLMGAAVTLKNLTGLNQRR
# UniProt O60925, whole entry: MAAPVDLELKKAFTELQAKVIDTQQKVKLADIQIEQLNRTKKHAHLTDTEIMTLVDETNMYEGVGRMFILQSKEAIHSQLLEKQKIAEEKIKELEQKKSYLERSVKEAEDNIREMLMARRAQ
# UniProt O43920, whole entry: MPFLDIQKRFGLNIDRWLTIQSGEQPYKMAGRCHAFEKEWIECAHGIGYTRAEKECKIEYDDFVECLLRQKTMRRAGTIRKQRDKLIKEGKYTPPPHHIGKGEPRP
# UniProt O43660: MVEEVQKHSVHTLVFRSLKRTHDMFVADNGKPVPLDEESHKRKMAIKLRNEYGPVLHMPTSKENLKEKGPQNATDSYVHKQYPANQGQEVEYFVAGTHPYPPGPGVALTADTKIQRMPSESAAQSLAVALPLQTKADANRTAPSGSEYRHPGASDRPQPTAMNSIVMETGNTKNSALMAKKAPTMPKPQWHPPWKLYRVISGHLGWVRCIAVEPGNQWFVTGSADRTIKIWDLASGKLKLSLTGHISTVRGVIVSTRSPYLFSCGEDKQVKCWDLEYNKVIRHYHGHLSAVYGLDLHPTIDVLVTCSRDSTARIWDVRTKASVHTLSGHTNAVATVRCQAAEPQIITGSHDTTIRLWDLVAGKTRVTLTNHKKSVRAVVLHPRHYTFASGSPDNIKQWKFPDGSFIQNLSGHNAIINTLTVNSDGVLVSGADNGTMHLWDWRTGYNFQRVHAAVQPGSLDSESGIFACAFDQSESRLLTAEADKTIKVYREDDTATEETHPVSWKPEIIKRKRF
# UniProt O75390: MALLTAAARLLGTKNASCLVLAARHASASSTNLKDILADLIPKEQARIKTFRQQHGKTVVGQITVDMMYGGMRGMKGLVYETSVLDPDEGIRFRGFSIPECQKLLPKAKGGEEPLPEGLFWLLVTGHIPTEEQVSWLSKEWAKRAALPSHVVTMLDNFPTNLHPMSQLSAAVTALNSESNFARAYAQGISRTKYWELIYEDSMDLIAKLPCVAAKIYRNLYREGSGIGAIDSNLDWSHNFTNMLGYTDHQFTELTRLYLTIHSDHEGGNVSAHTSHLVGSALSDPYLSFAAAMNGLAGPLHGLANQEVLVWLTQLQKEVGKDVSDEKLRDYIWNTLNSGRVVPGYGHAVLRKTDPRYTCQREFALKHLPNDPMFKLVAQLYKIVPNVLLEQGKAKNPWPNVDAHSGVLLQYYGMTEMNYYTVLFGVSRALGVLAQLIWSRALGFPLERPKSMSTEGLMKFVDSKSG
# Compound: Cc1nc(Nc2ncc(C(=O)Nc3c(C)cccc3Cl)s2)cc(N2CCN(CCO)CC2)n1 [dasatinib]
# Test: log2 fold change of tryptic peptide abundance, ligand vs vehicle (limited proteolysis) (log2 ratio); higher = more trypsin-susceptible (destabilized)
# Conditions: ligand concentration: 5 uM; sample: K562 cleared lysate
row,Target,log2 fold change
1,"MSH5 (peptide sequence: GKEVSDLIR, peptide start residue: 771) (UniProt O43196)",-0.198
2,"NUDT21 (peptide sequence: YIQQTKPLTLER, peptide start residue: 24) (UniProt O43809)",-0.153
3,"ZBTB24 (peptide sequence: KVNTLQEEK, peptide start residue: 167) (UniProt O43167)",0.318
4,"CHST10 (peptide sequence: HEIAPGIIR, peptide start residue: 215) (UniProt O43529)",-0.512
5,"AQR (peptide sequence: IELLEEVKR, peptide start residue: 906) (UniProt O60306)",0.216
6,"SIN3B (peptide sequence: EKGSDPAMELR, peptide start residue: 825) (UniProt O75182)",0.593
7,"CFAP410 (peptide sequence: LSELYLR, peptide start residue: 64) (UniProt O43822)",0.182
8,"VAMP4 (peptide sequence: HLNDDDVTGSVK, peptide start residue: 8) (UniProt O75379)",0.114
9,"EIF1B (peptide sequence: KNICQFLLEVGIVKEEQLK, peptide start residue: 91) (UniProt O60739)",0.145
10,"UniProt O75123 (peptide sequence: SVDKGEHTGNL, peptide start residue: 526)",-0.807
11,"OBSL1 (peptide sequence: SPHVVFHGSAHLVPTAR, peptide start residue: 601) (UniProt O75147)",0.256
12,"WDR62 (peptide sequence: LIHVLNVEK, peptide start residue: 560) (UniProt O43379)",-0.896
13,"SS18L1 (peptide sequence: SVAFASARPR, peptide start residue: 2) (UniProt O75177)",-0.238
14,"TBC1D12 (peptide sequence: LLPVPAPDPVGQDRK, peptide start residue: 17) (UniProt O60347)",0.377
15,"DNAJB6 (peptide sequence: DIYDKYGK, peptide start residue: 63) (UniProt O75190)",-0.197
16,"CCNT1 (peptide sequence: HSHSQLPVGTGNKRPGDPK, peptide start residue: 528) (UniProt O60563)",-0.207
17,"UniProt O43929 (peptide sequence: QIHLMNSFGFPQYVK, peptide start residue: 214)",0.114
18,"CEP104 (peptide sequence: TIFEGFAK, peptide start residue: 663) (UniProt O60308)",-0.181
19,"UniProt O75312 (peptide sequence: MDQIIEGNMK, peptide start residue: 391)",-0.253

# Random excerpt: 2 records from the list
row,Target,log2 fold change
19,"UniProt O75312 (peptide sequence: MDQIIEGNMK, peptide start residue: 391)",-0.253
2,"NUDT21 (peptide sequence: YIQQTKPLTLER, peptide start residue: 24) (UniProt O43809)",-0.153

# Additional results.

row,Target,log2 fold change
1,"EXOC3 (peptide sequence: KLMDLECSR, peptide start residue: 144) (UniProt O60645)",0.455
2,"UniProt O43709 (peptide sequence: ESVFTNER, peptide start residue: 227)",0.12
3,"PRKAB2 (peptide sequence: SEGAGGHAPGKEHK, peptide start residue: 21) (UniProt O43741)",-0.294
4,"TRAPPC3 (peptide sequence: MGFNIGVR, peptide start residue: 47) (UniProt O43617)",-0.0716
5,"UniProt O43930 (peptide sequence: VMSIPDVIR, peptide start residue: 79)",0.0855
6,"EEF1E1 (peptide sequence: QHLSSVVFIK, peptide start residue: 157) (UniProt O43324)",0.0761
7,"SRGAP2 (peptide sequence: MKEYLEGR, peptide start residue: 454) (UniProt O75044)",0.105
8,"TBX1 (peptide sequence: GFRDCDPEDWPR, peptide start residue: 294) (UniProt O43435)",-0.0845
9,"TXNL1 (peptide sequence: IFINLPR, peptide start residue: 196) (UniProt O43396)",-0.0872
10,"XRCC3 (peptide sequence: LVVIDSVAAPFR, peptide start residue: 209) (UniProt O43542)",0.205
11,"TBC1D4 (peptide sequence: HASAPSHVQPSDSEK, peptide start residue: 339) (UniProt O60343)",0.456
12,"COQ9 (peptide sequence: VNDAMNMGHTAK, peptide start residue: 277) (UniProt O75208)",-0.216
13,"RAB11FIP3 (peptide sequence: ANALEEQLKEQELR, peptide start residue: 501) (UniProt O75154)",-0.269
14,"PFDN1 (peptide sequence: SVKEAEDNIREMLMAR, peptide start residue: 104) (UniProt O60925)",0.119
15,"NDUFS5 (peptide sequence: YTPPPHHIGK, peptide start residue: 92) (UniProt O43920)",-0.102
16,"NME2P1 (peptide sequence: QHYIDLKDRPFFPGLVK, peptide start residue: 50) (UniProt O60361)",-0.288
17,"PLRG1 (peptide sequence: TAPSGSEYR, peptide start residue: 141) (UniProt O43660)",-0.156
18,"CS (peptide sequence: GFSIPECQK, peptide start residue: 95) (UniProt O75390)",0.468
